# From the supplement of paper PMC6411743
# ± gives the standard deviation of the averaged measurements. The list shows a part of the results, in another mix than the full data.
# Key:
# Test in all cases: NP40-soluble protein abundance relative to vehicle (solubility fold change) (ratio); higher = more soluble protein in presence of AMP-PNP
# PPM1A = target: T1, PPM1A (UniProt P35813)
# T1 sequence (whole entry): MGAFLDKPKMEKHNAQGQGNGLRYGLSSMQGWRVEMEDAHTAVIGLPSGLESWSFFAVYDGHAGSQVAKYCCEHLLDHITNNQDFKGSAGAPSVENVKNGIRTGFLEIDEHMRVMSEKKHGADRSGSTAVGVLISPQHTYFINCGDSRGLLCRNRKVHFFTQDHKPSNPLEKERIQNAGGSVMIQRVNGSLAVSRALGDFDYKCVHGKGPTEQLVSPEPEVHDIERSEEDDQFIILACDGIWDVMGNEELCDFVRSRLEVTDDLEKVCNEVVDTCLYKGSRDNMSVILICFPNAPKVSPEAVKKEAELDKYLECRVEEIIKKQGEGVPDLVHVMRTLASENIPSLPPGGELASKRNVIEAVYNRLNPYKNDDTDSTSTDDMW
# Summary of the method: (§1)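 Data come from three independent experiments in which Dounce-homogenised Jurkat crude lysate was treated at eight concentrations from 0.1 to 10 mM. Treatment ran 10 min at room temperature and then 3 min at 37 °C, after which 0.8% NP40 and benzonase were added for 60 min at 4 °C before ultracentrifugation. The supernatant underwent TMT labelling and LC-MS/MS, and vsn-normalised intensities were expressed as fold change against the detergent-processed vehicle in each replicate.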
# UBA1 = target: T2, UBA1 (UniProt P22314)
# T2 sequence (whole entry): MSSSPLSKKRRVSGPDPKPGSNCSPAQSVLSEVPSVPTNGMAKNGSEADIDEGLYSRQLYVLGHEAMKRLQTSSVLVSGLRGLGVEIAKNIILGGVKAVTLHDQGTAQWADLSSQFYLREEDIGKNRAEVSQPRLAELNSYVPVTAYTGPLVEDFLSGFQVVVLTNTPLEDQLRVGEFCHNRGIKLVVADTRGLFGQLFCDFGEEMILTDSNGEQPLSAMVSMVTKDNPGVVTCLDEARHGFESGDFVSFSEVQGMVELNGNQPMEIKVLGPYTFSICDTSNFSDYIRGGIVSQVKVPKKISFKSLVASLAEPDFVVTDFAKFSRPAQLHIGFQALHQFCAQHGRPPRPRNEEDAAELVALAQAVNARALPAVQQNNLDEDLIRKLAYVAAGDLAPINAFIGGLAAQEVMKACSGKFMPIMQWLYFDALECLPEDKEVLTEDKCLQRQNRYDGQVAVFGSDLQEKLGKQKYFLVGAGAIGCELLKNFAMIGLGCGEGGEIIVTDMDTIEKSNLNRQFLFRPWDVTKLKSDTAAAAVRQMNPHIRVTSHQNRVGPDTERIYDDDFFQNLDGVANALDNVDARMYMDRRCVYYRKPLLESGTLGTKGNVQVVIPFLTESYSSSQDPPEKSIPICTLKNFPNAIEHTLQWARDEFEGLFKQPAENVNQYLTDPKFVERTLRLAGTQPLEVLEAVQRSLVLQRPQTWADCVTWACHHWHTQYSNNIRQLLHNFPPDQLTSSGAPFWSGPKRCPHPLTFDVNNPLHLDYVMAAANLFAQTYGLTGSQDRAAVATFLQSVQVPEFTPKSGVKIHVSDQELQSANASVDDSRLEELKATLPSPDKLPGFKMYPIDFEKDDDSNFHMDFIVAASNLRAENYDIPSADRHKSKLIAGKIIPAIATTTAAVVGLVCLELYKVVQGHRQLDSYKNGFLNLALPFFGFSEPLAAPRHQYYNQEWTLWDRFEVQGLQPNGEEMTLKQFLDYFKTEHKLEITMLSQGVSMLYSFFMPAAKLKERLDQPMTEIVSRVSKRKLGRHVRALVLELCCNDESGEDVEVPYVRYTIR
# Summary of the method: as §1
# [1] = target: T3, UniProt P18846 and related entries
# T3 sequence (whole entry): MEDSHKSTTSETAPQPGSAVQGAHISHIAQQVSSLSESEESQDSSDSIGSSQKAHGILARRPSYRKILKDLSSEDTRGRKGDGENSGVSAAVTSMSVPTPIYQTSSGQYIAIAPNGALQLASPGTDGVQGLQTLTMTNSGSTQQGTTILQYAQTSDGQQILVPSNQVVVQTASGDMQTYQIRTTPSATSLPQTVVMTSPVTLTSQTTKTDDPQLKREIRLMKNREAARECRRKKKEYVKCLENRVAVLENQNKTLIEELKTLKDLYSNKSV
# Summary of the method: as §1
# [2] = target: T4, UniProt P31350 and related entries
# T4 sequence (whole entry): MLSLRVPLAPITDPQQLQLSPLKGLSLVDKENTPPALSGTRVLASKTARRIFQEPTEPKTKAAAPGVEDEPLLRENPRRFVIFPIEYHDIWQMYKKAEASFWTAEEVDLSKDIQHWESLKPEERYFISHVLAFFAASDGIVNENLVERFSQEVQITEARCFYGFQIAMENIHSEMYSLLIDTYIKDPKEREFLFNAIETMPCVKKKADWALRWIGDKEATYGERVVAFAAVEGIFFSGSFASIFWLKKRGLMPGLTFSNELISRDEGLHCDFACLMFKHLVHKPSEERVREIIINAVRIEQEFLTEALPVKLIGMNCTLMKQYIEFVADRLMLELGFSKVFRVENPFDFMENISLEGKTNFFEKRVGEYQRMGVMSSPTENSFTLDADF
# Summary of the method: as §1
# [3] = target: T5, UniProt P32856 and related entries
# T5 sequence (whole entry): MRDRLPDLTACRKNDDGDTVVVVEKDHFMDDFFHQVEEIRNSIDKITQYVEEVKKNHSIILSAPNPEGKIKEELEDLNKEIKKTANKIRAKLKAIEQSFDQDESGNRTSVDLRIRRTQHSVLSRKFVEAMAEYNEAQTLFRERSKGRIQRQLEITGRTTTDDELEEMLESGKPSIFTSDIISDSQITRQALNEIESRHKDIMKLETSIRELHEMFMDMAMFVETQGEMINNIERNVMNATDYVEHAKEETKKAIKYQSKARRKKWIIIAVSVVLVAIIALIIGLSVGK
# Summary of the method: as §1
# [4] = target: T6, UniProt P35613 and related entries
# T6 sequence (whole entry): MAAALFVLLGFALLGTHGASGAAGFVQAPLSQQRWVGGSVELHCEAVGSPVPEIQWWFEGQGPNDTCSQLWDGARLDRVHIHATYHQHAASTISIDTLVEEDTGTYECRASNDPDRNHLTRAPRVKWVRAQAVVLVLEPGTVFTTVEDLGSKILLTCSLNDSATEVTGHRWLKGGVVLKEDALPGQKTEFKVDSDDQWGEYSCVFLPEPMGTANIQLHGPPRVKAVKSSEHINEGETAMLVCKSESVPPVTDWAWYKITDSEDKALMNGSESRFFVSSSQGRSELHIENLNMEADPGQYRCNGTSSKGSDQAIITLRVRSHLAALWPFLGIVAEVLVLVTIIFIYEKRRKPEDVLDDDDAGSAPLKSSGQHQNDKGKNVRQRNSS
# Summary of the method: as §1
# UniProt P35626 = target: T7, UniProt P35626
# T7 sequence (whole entry): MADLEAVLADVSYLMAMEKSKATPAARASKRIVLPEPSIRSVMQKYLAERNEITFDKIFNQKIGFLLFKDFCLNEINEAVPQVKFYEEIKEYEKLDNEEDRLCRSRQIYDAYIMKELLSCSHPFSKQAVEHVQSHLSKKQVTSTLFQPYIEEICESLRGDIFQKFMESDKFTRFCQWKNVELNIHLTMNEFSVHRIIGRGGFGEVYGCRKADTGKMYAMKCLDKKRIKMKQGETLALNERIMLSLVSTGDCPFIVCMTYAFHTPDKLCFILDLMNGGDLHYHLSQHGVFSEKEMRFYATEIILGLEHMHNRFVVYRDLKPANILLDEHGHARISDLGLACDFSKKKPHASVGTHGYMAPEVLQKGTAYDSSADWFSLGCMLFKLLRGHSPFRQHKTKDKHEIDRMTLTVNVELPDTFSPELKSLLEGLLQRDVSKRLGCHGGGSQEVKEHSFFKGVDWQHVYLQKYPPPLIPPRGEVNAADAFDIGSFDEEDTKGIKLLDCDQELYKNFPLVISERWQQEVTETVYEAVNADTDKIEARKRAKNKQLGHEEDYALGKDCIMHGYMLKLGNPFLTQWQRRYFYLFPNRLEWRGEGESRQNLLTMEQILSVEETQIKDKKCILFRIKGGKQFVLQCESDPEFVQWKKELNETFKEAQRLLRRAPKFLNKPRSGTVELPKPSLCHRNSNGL
# Summary of the method: as §1
# YWHAB = target: T8, YWHAB (UniProt P31946)
# T8 sequence (whole entry): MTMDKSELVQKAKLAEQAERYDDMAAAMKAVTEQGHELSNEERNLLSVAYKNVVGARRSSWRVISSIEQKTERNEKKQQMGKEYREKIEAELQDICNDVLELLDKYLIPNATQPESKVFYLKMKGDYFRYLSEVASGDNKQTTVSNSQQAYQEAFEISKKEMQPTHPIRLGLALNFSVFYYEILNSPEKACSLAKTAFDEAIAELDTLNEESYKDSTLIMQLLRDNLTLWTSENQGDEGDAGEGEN
# Summary of the method: as §1
smiles,measurement,setting,value
Nc1ncnc2c1ncn2[C@@H]1O[C@H](COP(=O)(O)OP(=O)(O)NP(=O)(O)O)[C@@H](O)[C@H]1O [adenylyl imidodiphosphate],NP40-soluble protein abundance,PPM1A; concentration: 6mM,1.02 ± 0.041
same,NP40-soluble protein abundance,PPM1A; concentration: 8mM,0.976 ± 0.022
same,NP40-soluble protein abundance,PPM1A; concentration: 10mM,1 ± 0.054
same,NP40-soluble protein abundance,UBA1; concentration: 1mM,0.9895 ± 0.0049
same,NP40-soluble protein abundance,UBA1; concentration: 2mM,0.955 ± 0.023
same,NP40-soluble protein abundance,UBA1; concentration: 4mM,0.9783 ± 0.0037
same,NP40-soluble protein abundance,UBA1; concentration: 6mM,0.978 ± 0.021
same,NP40-soluble protein abundance,UBA1; concentration: 8mM,0.951 ± 0.072
same,NP40-soluble protein abundance,UBA1; concentration: 10mM,0.956 ± 0.033
same,NP40-soluble protein abundance,[1]; concentration: 1mM,0.941 ± 0.018
same,NP40-soluble protein abundance,[1]; concentration: 2mM,1.04 ± 0.06
same,NP40-soluble protein abundance,[1]; concentration: 4mM,0.9115 ± 0.0038
same,NP40-soluble protein abundance,[1]; concentration: 6mM,0.989 ± 0.03
same,NP40-soluble protein abundance,[1]; concentration: 8mM,0.934 ± 0.023
same,NP40-soluble protein abundance,[1]; concentration: 10mM,0.995 ± 0.022
same,NP40-soluble protein abundance,[2]; concentration: 1mM,0.986 ± 0.035
same,NP40-soluble protein abundance,[2]; concentration: 2mM,0.976 ± 0.03
same,NP40-soluble protein abundance,[2]; concentration: 4mM,0.985 ± 0.021
same,NP40-soluble protein abundance,[2]; concentration: 6mM,0.94 ± 0.012
same,NP40-soluble protein abundance,[2]; concentration: 8mM,0.944 ± 0.019
same,NP40-soluble protein abundance,[2]; concentration: 10mM,0.91 ± 0.027
same,NP40-soluble protein abundance,[3]; concentration: 1mM,1.03 ± 0.019
same,NP40-soluble protein abundance,[3]; concentration: 2mM,1.07 ± 0.019
same,NP40-soluble protein abundance,[3]; concentration: 4mM,1 ± 0.031
same,NP40-soluble protein abundance,[3]; concentration: 6mM,1.01 ± 0.013
same,NP40-soluble protein abundance,[3]; concentration: 8mM,1.01 ± 0.029
same,NP40-soluble protein abundance,[3]; concentration: 10mM,0.992 ± 0.016
same,NP40-soluble protein abundance,[4]; concentration: 1mM,1.02 ± 0.02
same,NP40-soluble protein abundance,[4]; concentration: 2mM,1.08 ± 0.093
same,NP40-soluble protein abundance,[4]; concentration: 4mM,0.989 ± 0.051
same,NP40-soluble protein abundance,[4]; concentration: 6mM,1.03 ± 0.021
same,NP40-soluble protein abundance,[4]; concentration: 8mM,0.997 ± 0.03
same,NP40-soluble protein abundance,[4]; concentration: 10mM,0.987 ± 0.036
same,NP40-soluble protein abundance,UniProt P35626; concentration: 1mM,1.03 ± 0.033
same,NP40-soluble protein abundance,UniProt P35626; concentration: 2mM,0.993 ± 0.023
same,NP40-soluble protein abundance,UniProt P35626; concentration: 4mM,1.04 ± 0.04
same,NP40-soluble protein abundance,UniProt P35626; concentration: 6mM,1.05 ± 0.018
same,NP40-soluble protein abundance,UniProt P35626; concentration: 8mM,1.07 ± 0.011
same,NP40-soluble protein abundance,UniProt P35626; concentration: 10mM,1.02 ± 0.0086
same,NP40-soluble protein abundance,YWHAB; concentration: 1mM,0.982 ± 0.024
same,NP40-soluble protein abundance,YWHAB; concentration: 2mM,1.09 ± 0.08
same,NP40-soluble protein abundance,YWHAB; concentration: 4mM,0.971 ± 0.056
same,NP40-soluble protein abundance,YWHAB; concentration: 6mM,0.967 ± 0.044
same,NP40-soluble protein abundance,YWHAB; concentration: 8mM,0.964 ± 0.012
same,NP40-soluble protein abundance,YWHAB; concentration: 10mM,0.958 ± 0.075

# Retrieved one by one from the list above:
smiles,measurement,setting,value
Nc1ncnc2c1ncn2[C@@H]1O[C@H](COP(=O)(O)OP(=O)(O)NP(=O)(O)O)[C@@H](O)[C@H]1O [adenylyl imidodiphosphate],NP40-soluble protein abundance,PPM1A; concentration: 10mM,1 ± 0.054
same,NP40-soluble protein abundance,UBA1; concentration: 8mM,0.951 ± 0.072
same,NP40-soluble protein abundance,[1]; concentration: 1mM,0.941 ± 0.018
same,NP40-soluble protein abundance,[2]; concentration: 4mM,0.985 ± 0.021
